“And” between values parts separate entries of the source, which are not always exact repeats. Equal values may be shown once. In all, about 340,000 compounds went through this assay and about 170 (0.05%) were called active. Inconclusive means that the source gave no clear call. Such entries were picked first, then a sample of the others. Calls come from the whole dose curve; as a rule, active = well fitted inhibition curve with a large enough effect in the signal ratio, with a control signal flat (not every such curve was filed as active); inconclusive = small, poorly fitted or top-dose-only effect, or effect the other way, or a change in a side signal; inactive = flat fitted curve, though single readings scatter; the % refers to the signal ratio. A potency beside an inconclusive call is a rough fit, not a confirmed value.
Assay: qHTS Assay to Find Inhibitors of Chronic Active B-Cell Receptor Signaling;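 for activity change, negative = inhibition: plate controls were basal doxycycline-induced cells for no effect and cells given 10 µM MG132 for full effect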
Conditions: ABC-DLBCL IkBa-CBG/CBR reporter, luminescence ratio (green luciferase fused to IkBa over red control in TMD8 lymphoma cells), 4 h; activity change, negative = inhibition: at 46.1 µM (top of the series)
In short: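 TMD8 human ABC-DLBCL cells with doxycycline-inducible IκBα–green luciferase fusion and unfused red luciferase, in 0.5% FBS medium; compounds up to 46 uM, 4 h at 37C. Green/red luminescence ratio, filter-overlap corrected, fitted to concentration-response curves.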
Potency is the fitted concentration of half-maximal effect.

Question: With O=C(c1ccc(-c2ccccc2)cc1)c1ccccc1C(=O)N1CCOCC1 as the molecule, how does the activity change, negative = inhibition read?
Answer: inconclusive: 10.2%

Question: With CCCn1c(N)c(C(=O)CSc2nc(C)cs2)c(=O)[nH]c1=O as the molecule, how does the Potency read?
Answer: inconclusive: 2.31 µM [rising, partial curve, poor fit]

Question: For Fc1ccc(C(c2ccc(F)cc2)N2CCN(C/C=C/c3ccccc3)CC2)cc1, which activity change, negative = inhibition is on record?
Answer: inactive

Question: With O=C(CSCc1c(F)cccc1Cl)Nc1ccccc1C(=O)N1CCOCC1 as the molecule, how does the activity change, negative = inhibition read?
Answer: inconclusive: -2.56%

Question: Which activity change, negative = inhibition does the source give for CCOC(=O)C(=CN(CCc1ccccc1)CC(=O)OC)C(=O)OCC here?
Answer: inconclusive: 4.9%

Question: Which activity change, negative = inhibition does the source give for CCOC(=O)c1ccc(NC(=O)CCNC(=O)c2ccc([N+](=O)[O-])cc2)cc1 here?
Answer: inconclusive: 7.41%

Question: For O=C1CC(NCc2ccc3c(c2)OCO3)C(=O)N1CCc1ccccc1 (stereo not given), which activity change, negative = inhibition is on record?
Answer: inconclusive: -3.44%

Question: For COc1ccc(NC(=O)C2CC(=O)n3cnnc3S2)cc1 (stereo not given), which Potency is on record?
Answer: inconclusive: 11.6 µM [falling, partial curve, poor fit]

Question: Which activity change, negative = inhibition does the source give for COc1ccc(C(C)=O)cc1COc1ccc(-n2cnnn2)cc1 here?
Answer: inconclusive: -0.98%

Question: Which activity change, negative = inhibition does the source give for O=C(c1ccco1)N1CCN(S(=O)(=O)c2ccc([N+](=O)[O-])cc2)CC1 here?
Answer: inconclusive: 6.68%

Question: Which activity change, negative = inhibition does the source give for CC(C)C[C@@H](C(=O)NC1CC1)N1C(=O)N2CCc3c([nH]c4ccccc34)[C@@]2(C)C1=O here?
Answer: inconclusive: 1.4%

Question: Which activity change, negative = inhibition does the source give for NS(=O)(=O)c1ccc(NC(=S)NC2CCCCCC2)cc1 here?
Answer: inconclusive: 0.602%

Question: For O=C(NCC1CC1)c1cccc2c1C(=O)c1ccc(-c3ccc(OC(F)(F)F)cc3)cc1S2(=O)=O, which activity change, negative = inhibition is on record?
Answer: inactive

Question: With Cc1ccc(S(=O)(=O)n2ccc3c(OCCOCCSCC(NC(=O)OC(C)(C)C)C(=O)O)cccc32)cc1 (stereo not given) as the molecule, how does the activity change, negative = inhibition read?
Answer: inconclusive: 1.53%

Question: With CCOC(=O)C1CCCN(CC(=O)NC2=Nc3ccccc3N=C(C)C2c2ccccc2)C1 (stereo not given) as the molecule, how does the activity change, negative = inhibition read?
Answer: inconclusive: -1.65%

Question: With CCc1nc(N2CCN(C(C)=O)CC2)c2c3c(sc2n1)CCCC3 as the molecule, how does the activity change, negative = inhibition read?
Answer: inconclusive: 8.5%

Question: Which Potency does the source give for N#Cc1ccc(/C=C\c2nccc3c2[nH]c2ccccc23)cc1 here?
Answer: inconclusive: 14.1 µM [rising, single point]

Question: For COc1cccc(N2CCN(CC(=O)NCc3ccccc3)CC2)c1, which activity change, negative = inhibition is on record?
Answer: inactive

Question: Which activity change, negative = inhibition does the source give for C[C@@H](C(=O)NCc1ccccc1)[C@@H]1C[C@@]1(C)[C@@H](NC(=O)OCc1ccccc1)c1ccccc1 here?
Answer: inactive

Question: With COc1cc([N+](=O)[O-])cc2sc(NC(=O)c3c(F)cccc3F)nc12 as the molecule, how does the Potency read?
Answer: inconclusive: 6.31 µM [falling, partial curve, poor fit]

Question: Which activity change, negative = inhibition does the source give for CC1(C)CC(=O)C2=C(C1)c1c(ccc3ccccc13)NC2c1cc([N+](=O)[O-])cc([N+](=O)[O-])c1O (stereo not given) here?
Answer: inactive

Question: With Clc1ccc2nc(CN3CCCCCC3)cn2c1 as the molecule, how does the activity change, negative = inhibition read?
Answer: inactive

Question: For CCOC(=O)c1c(NC(=O)c2nn(C)cc2[N+](=O)[O-])sc(C)c1C, which activity change, negative = inhibition is on record?
Answer: inactive

Question: With Cc1cccc(NC(=O)c2oc3ccc(S(=O)(=O)N(C)C4CCCCC4)cc3c2C)c1C as the molecule, how does the Potency read?
Answer: inconclusive: 0.631 µM [falling, full curve]

Question: Which activity change, negative = inhibition does the source give for Cc1ccc(C(=O)NNC(=O)CSc2nnc(C(C)C)n2C)cc1 here?
Answer: inactive

Question: For Cc1ccccc1Cn1c(=O)n(CCC(=O)NCc2ccc3c(c2)OCO3)c(=O)c2ccccc21, which activity change, negative = inhibition is on record?
Answer: inconclusive: 12.1%

Question: For CC(=O)NC1=NC(=O)/C(=C/c2cn(C(C)=O)nc2-c2ccccc2)S1, which activity change, negative = inhibition is on record?
Answer: inconclusive: -3.5%

Question: For COc1ccc(/C=C2\Oc3cc(OC(=O)N4CCOCC4)ccc3C2=O)c(OC)c1, which activity change, negative = inhibition is on record?
Answer: inactive

Question: Which Potency does the source give for NS(=O)(=O)c1ccc(CCNc2nc3c(-c4cccc(F)c4)nnn3c3ccccc23)cc1 here?
Answer: inconclusive: 10.3 µM [falling, partial curve, poor fit]

Question: With CCc1nn(CC(=O)NCCN2CCN(C)CC2)c(=O)c2cc3occc3n12 as the molecule, how does the activity change, negative = inhibition read?
Answer: inconclusive: -0.514%

Question: With NC(=S)N/N=C1\CCOc2ccc(F)cc21 as the molecule, how does the Potency read?
Answer: inconclusive: 25.1 µM [cytotoxic, single point]

Question: Which activity change, negative = inhibition does the source give for COc1cc(/C=N/NC(=O)c2ccc(C)nc2)cc([N+](=O)[O-])c1O here?
Answer: inconclusive: 12.4%

Question: Which activity change, negative = inhibition does the source give for N#C/C(=C\c1ccc(N2CCCCC2)o1)C(=O)Nc1cccc(Br)c1 here?
Answer: inactive

Question: With CC(Oc1ccc2c(=O)c(-c3ccc(Cl)cc3)c(C(F)(F)F)oc2c1)C(=O)O (stereo not given) as the molecule, how does the activity change, negative = inhibition read?
Answer: inconclusive: 5.06%

Question: For COC(=O)c1cc(C)sc1NC(=O)CCc1ccccc1, which activity change, negative = inhibition is on record?
Answer: inconclusive: 6.46%

Question: With OC1(c2ccc(F)cc2)CCN(Cc2nnnn2Cc2cccs2)CC1 as the molecule, how does the activity change, negative = inhibition read?
Answer: inactive

Question: With Cc1c(C(=O)NC2CCOC2)oc2c(F)cccc12 (stereo not given) as the molecule, how does the activity change, negative = inhibition read?
Answer: inconclusive: -1.53%

Question: For COc1cccc(NC(=S)/C(=C(\[O-])c2ccc(C)c([N+](=O)[O-])c2)[n+]2ccccc2)c1, which Potency is on record?
Answer: inconclusive: 20.6 µM [falling, partial curve]

Question: With Fc1ccccc1-c1csc(=Nc2cccnc2)n1CCCn1ccnc1 as the molecule, how does the activity change, negative = inhibition read?
Answer: inconclusive: -1.36%

Question: Which Potency does the source give for CCOC(=O)CC(=O)Nc1nnc(C(C)C)s1 here?
Answer: inconclusive: 25.1 µM [falling, single point]

Question: With COc1ccc(NC(=O)c2ccco2)cc1NC(=O)c1cccc(OC(C)C)c1 as the molecule, how does the activity change, negative = inhibition read?
Answer: inconclusive: -55.2%

Question: With CCOc1ccc(S(=O)(=O)n2nnc3ccccc32)cc1C as the molecule, how does the activity change, negative = inhibition read?
Answer: inactive

Question: With O=C(CCC(=O)c1ccc(F)cc1)Nc1cccnc1 as the molecule, how does the Potency read?
Answer: inconclusive: 6.51 µM [rising, partial curve, poor fit]

Question: With Clc1cccc(Cl)c1-c1nnc2ccc(N3CCOCC3)nn12 as the molecule, how does the Potency read?
Answer: inconclusive: 13 µM [falling, partial curve]

Question: For COc1ccc(/C(C)=N/N2CCCCC2)c(O)c1, which activity change, negative = inhibition is on record?
Answer: inconclusive: 3.39%

Question: Which activity change, negative = inhibition does the source give for CCOC(=O)c1c(C)c(C)n(Cc2ccc(OC)c(OC)c2)c1C here?
Answer: inconclusive: -6.26%

Question: Which activity change, negative = inhibition does the source give for Cc1cc(C(=O)COC(=O)Cc2ccc(Cl)cc2)c(C)n1C here?
Answer: inconclusive: 5.02%

Question: For COc1ccc(-n2c(=S)[nH]c3cc(C(=O)NCc4ccco4)ccc3c2=O)c(OC)c1, which activity change, negative = inhibition is on record?
Answer: inactive

Question: With O=C1/C(=C\c2ccccn2)SC(=S)N1c1ccc(S(=O)(=O)Nc2nccs2)cc1 as the molecule, how does the activity change, negative = inhibition read?
Answer: inconclusive: -6.49%

Question: Which Potency does the source give for Cc1ccccc1N=C(NOCc1ccc(Cl)cc1Cl)c1nonc1N here?
Answer: inconclusive: 0.651 µM [rising, full curve]

Question: Which activity change, negative = inhibition does the source give for COCCCNC(=O)C1CCCN(S(C)(=O)=O)C1 (stereo not given) here?
Answer: inconclusive: 1.02%

Question: With COCCCNC(=S)N(CCCO)Cc1cc2cc3c(cc2[nH]c1=O)OCO3 as the molecule, how does the activity change, negative = inhibition read?
Answer: inconclusive: 0.807%

Question: Which activity change, negative = inhibition does the source give for CCc1cc2c(Sc3nc4ccccc4s3)ncnc2s1 here?
Answer: inconclusive: -15.9%

Question: Which activity change, negative = inhibition does the source give for Cc1ccc(-n2c3c(c(O)c(-c4ccccc4)c2=O)C(=O)CC(C)(C)C3)cc1 here?
Answer: inconclusive: -1.28%

Question: For COc1ccc(/C(C)=N/NC(=O)c2ccc(CSc3nncn3C)cc2)cc1, which activity change, negative = inhibition is on record?
Answer: inactive

Question: With COCC1CCN(Cc2cn[nH]c2-c2cc3ccccc3o2)C1 (stereo not given) as the molecule, how does the activity change, negative = inhibition read?
Answer: inactive

Question: With Cc1cccc(NC(=O)C2CCCN2C(=O)NC2CCCCC2)c1 (stereo not given) as the molecule, how does the activity change, negative = inhibition read?
Answer: inactive

Question: Which activity change, negative = inhibition does the source give for CC1(C)C[C@@H]2C[C@@](C)(CN2C(=O)c2cc(COc3cccc(C(F)(F)F)c3)on2)C1 here?
Answer: inconclusive: -18%

Question: For Cc1ccc(S(=O)(=O)N2CCN(C(=O)c3ccc4ccccc4n3)CC2)c(C)c1, which activity change, negative = inhibition is on record?
Answer: inconclusive: 3.07%

Question: With COc1ccc(/C=N/NC(=S)Nc2cc(S(=O)(=O)N3CCOCC3)ccc2N2CCOCC2)cc1O as the molecule, how does the activity change, negative = inhibition read?
Answer: inconclusive: -5.63%

Question: For COc1ccc(OCC(=O)Nc2ccccc2C(=O)NC2CC2)cc1, which activity change, negative = inhibition is on record?
Answer: inconclusive: 6.11%

Question: Which Potency does the source give for CCc1cc2c(=O)c(-c3ccc4c(c3)OCCO4)coc2c(CN2CCCCC2C)c1O (stereo not given) here?
Answer: inconclusive: 10 µM [rising, single point]

Question: Which activity change, negative = inhibition does the source give for Cc1ccc(OCCC(=O)Nc2ccc3c(c2)OCCCO3)cc1 here?
Answer: inconclusive: 0.204%

Question: With COc1cc(-c2noc(CCC(=O)Nc3cccnc3)n2)cc(OC)c1OC as the molecule, how does the Potency read?
Answer: inconclusive: 20 µM [falling, partial curve, poor fit]

Question: With CC(=O)Nc1ccc(C(=O)COC(=O)C2CCCCC2)c(F)c1 as the molecule, how does the activity change, negative = inhibition read?
Answer: inconclusive: 4.52%

Question: For O=C(N/N=C/c1ccc([N+](=O)[O-])cc1)c1[nH]ncc1Br, which activity change, negative = inhibition is on record?
Answer: inconclusive: 233%

Question: For CCN(CC)C(=O)C1CCCc2c1[nH]c1ccc(Cl)cc21 (stereo not given), which activity change, negative = inhibition is on record?
Answer: inconclusive: 27.5%

Question: For COc1cc(O)c(C(CC(=O)N2CCCC(C)C2)c2ccc(N(C)C)cc2)c(OC)c1 (stereo not given), which activity change, negative = inhibition is on record?
Answer: inactive

Question: With COc1ccc(N2CC(NC(=O)c3ccc(S(=O)(=O)N4CCOCC4)cc3)CC2=O)cc1 (stereo not given) as the molecule, how does the activity change, negative = inhibition read?
Answer: inactive

Question: With N/C(=N\OC(=O)CSc1ccccc1)c1ccncc1 as the molecule, how does the activity change, negative = inhibition read?
Answer: inconclusive: -0.308%

Question: With Cc1ccnc(NC(=O)c2oc3ccccc3c2C)c1 as the molecule, how does the activity change, negative = inhibition read?
Answer: inconclusive: -19.4%

Question: For COc1ccccc1NC(=O)C1CCN(c2ncnc3c2nc2n3CCCCC2)CC1, which Potency is on record?
Answer: inconclusive: 35.5 µM [falling, partial curve, poor fit] and inconclusive: 8.91 µM [falling, partial curve, poor fit]

Question: For CCN(CC)S(=O)(=O)c1ccc(C(=O)N2CCN(c3ncccn3)CC2)cc1, which activity change, negative = inhibition is on record?
Answer: inconclusive: -6.16%

Question: With O=C1CC(c2ccccc2)=Nc2ccc(Br)cc2N1 as the molecule, how does the Potency read?
Answer: inconclusive: 11.2 µM [rising, partial curve, poor fit]

Question: For CC(C)c1[nH]nc2c1C(C(C)C)C(C#N)=C(N)O2 (stereo not given), which Potency is on record?
Answer: inconclusive: 14.1 µM [falling, single point]

Question: For c1ccc(CSC2=NCCCN2)cc1, which activity change, negative = inhibition is on record?
Answer: inactive

Question: Which activity change, negative = inhibition does the source give for CC1=NN(C(=O)c2ccc(C)cc2)C(O)(C(F)(F)OC(F)(F)F)C1 (stereo not given) here?
Answer: inconclusive: -30%

Question: Which activity change, negative = inhibition does the source give for Cc1cccc(C)c1NC(=O)CN(C)CC(=O)Nc1sc2c(c1C(N)=O)CCC2 here?
Answer: inconclusive: -0.944%

Question: Which activity change, negative = inhibition does the source give for COc1ccccc1NC(=O)c1c(C)oc2c1CCCC2 here?
Answer: inconclusive: 9.3%

Question: For CC(=O)Nc1ccc(-c2csc(NNC(=O)c3ccccc3)n2)cc1, which activity change, negative = inhibition is on record?
Answer: inconclusive: 3.72%
